# Experimental data reported in publication PMC6438731, “Extrasynaptic δ‐GABAA receptors are high‐affinity muscimol receptors” (Journal of Neurochemistry, 2019).
# Columns and labels:
# [1] = system: forebrain membranes of δKO mice (non‐δ‐GABAARs); test: [^3H]muscimol binding kinetics, δKO forebrain membranes; parameters: species or system mouse; settings: 22°C
# Experimental: (§1) WT and δKO forebrain and cerebellar membranes were prepared using a modification of the method of Squires and Saederup (2000) essentially as described by Uusi‐Oukari et al. (2014). […] forebrain along with midbrain region was homogenized into 10 mM Tris‐HCl, pH 8.0 buffer containing 2 mM EDTA, using an Ultra‐Turrax T25 (Janke & Kunkel IKA labortechnik) for 20 s at 9500 rpm. The homogenates were centrifuged at 20 000 g for 10 min at +4°C and the resulting pellets were washed three times by resuspension and re‐centrifugation with 10 mM Tris‐HCl, pH 8.5 buffer containing 0.2 M NaCl, and 5 mM EDTA. The resulting pellets were then suspended in ice‐cold H2O and centrifuged. […]
# (§2) The binding of [^3H]muscimol (5 nM) was measured in assay buffer at 22°C in a total volume of 300 μL. […] Air‐dried filters were immersed in 3 mL of Optiphase HiSafe 3 scintillation fluid (Wallac, Turku, Finland) and radioactivity determined in a Wallac model 1410 liquid scintillation counter (Wallac, Turku, Finland). […]
# (§3) The tubes were mixed and incubations at 22°C were terminated at various time points (30 s – 30 min) as described above. Dissociation of [^3H]muscimol from recombinant receptors in HEK cell membranes was also measured at 0–4°C (on ice) to evaluate how fast [^3H]muscimol dissociates from receptors while washing the filter with ice‐cold assay buffer during filtration.
# [2] = system: cerebellar membranes of δKO mice (non‐δ‐GABAARs); test: [^3H]muscimol binding kinetics, δKO cerebellar membranes; parameters: species or system mouse; settings: 22°C
# Experimental: as §1, §2, §3
smiles,measurement,setting,value
NCc1cc(=O)[nH]o1 [[^3H]muscimol] [[Methylene‐^3H]muscimol],reduction of 5 nM [^3H]muscimol binding in δKO compared to WT mice,[1],> 50% and ~ 60%
same,reduction of 5 nM [^3H]muscimol binding in δKO compared to WT mice,[2],> 50% and ~ 60%

# Where “and” joins values, the source holds several entries; their conditions need not be identical. Equal entries are not always repeated.
